Patent US20150132305A1
No constants are given. Whether binding was seen depends on the method and setting. Some results given as binding are weak or reduced against the parent protein; the word gives no strength. For some assays here: Where a sequence is shown, tags or fusion partners need not be part of it.

Key:
[1] = target: T1, recombinant Cad-11 EC1 human IgG1 fusion protein (R&D Systems Cat. No. 1790-CA-050) (human) (UniProt P55287); test: competition ELISA
T1 sequence: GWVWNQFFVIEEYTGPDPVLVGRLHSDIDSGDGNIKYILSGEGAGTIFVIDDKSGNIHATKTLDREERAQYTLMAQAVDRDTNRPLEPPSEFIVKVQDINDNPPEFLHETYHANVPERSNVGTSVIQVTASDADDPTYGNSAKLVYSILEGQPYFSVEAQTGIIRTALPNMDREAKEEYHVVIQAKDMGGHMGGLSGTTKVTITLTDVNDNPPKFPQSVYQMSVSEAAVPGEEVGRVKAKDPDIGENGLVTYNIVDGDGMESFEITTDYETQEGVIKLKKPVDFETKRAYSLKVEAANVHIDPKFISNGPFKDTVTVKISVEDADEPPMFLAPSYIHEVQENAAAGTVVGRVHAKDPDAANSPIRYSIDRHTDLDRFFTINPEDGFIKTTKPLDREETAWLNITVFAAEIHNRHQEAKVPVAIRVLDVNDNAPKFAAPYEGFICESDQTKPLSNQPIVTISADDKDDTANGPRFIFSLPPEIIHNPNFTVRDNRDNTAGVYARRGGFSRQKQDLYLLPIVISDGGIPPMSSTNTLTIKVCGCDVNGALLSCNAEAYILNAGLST

[2] = target: T1, recombinant Cad-11 EC1 human IgG1 fusion protein (R&D Systems Cat. No. 1790-CA-050) (human); test: competition ELISA: antibody dilution series premixed with 0.1 µg/ml biotinylated SYN0012/H1M1, plate coated with recombinant human Cad-11 EC1 fusion protein, streptavidin-HRP, OD450
[3] = target: T2, Cad-20 37-mer peptide linked to BSA (UniProt Q9HBT6); test: ELISA, BSA-coupled 37-mer cadherin peptide coated at 500 ng/ml, A450
T2 sequence (peptide, linked to BSA, looked up): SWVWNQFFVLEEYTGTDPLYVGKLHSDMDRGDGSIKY

[4] = target: T3, Cad-24 37-mer peptide linked to BSA (UniProt Q86UP0); test: as above
T3 sequence (peptide, linked to BSA, looked up): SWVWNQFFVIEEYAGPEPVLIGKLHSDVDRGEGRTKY

[5] = target: T4, Cad-8 37-mer peptide linked to BSA (UniProt P55286); test: as above
T4 sequence (peptide, linked to BSA, looked up): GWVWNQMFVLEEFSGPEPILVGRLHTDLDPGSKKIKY

[6] = target: T5, Cad-18 37-mer peptide linked to BSA (UniProt Q13634); test: as above
T5 sequence (peptide, linked to BSA, looked up): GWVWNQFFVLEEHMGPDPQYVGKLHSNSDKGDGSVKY

[7] = target: T6, Cad-7 37-mer peptide linked to BSA (UniProt Q9ULB5); test: as above
T6 sequence (peptide, linked to BSA, looked up): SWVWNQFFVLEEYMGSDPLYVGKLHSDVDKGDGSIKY

[8] = target: T7, Cad-9 37-mer peptide linked to BSA (UniProt Q9ULB4); test: as above
T7 sequence (peptide, linked to BSA, looked up): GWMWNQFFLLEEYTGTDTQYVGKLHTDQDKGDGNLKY

Measured: binding

B1: SDP061 humanized anti-Cad-11 EC1 antibody (Vκ2/VH1) (antibody, IgG4, V domains shown)
VH: EVQLVQSGPELKKPGASVKISCKASGYSFTGYFMNWVKQAHGQGLEWIGRINPYTGDTFYNQKFKGRATLTVDKSSSTAYMELVSLSSEDSAVYYCGRLGSRYWYFDVWGQGTTVTVSS
VL: DVLMTQTPLSSPVTLGQPASISCRSSQSIIHSNGNTYLEWYLQKPGQSPQLLIYKVSNRFSGVPDRFSGSGSGTDFTLKISRVEAEDVGVYYCFQGSHVPWTFGQGTKLEIK
binds: [1] | [2] | [3] | [4] | [5]

B2: SDP141 humanized anti-Cad-11 EC1 antibody (Vκ3/VH4) (antibody, IgG4, V domains shown)
VH: EVQLVQSGAEVKKPGASVKVSCKASGYSFTGYFMNWVRQAPGQGLEWIGRINPYTGDTFYNQKFKGRATITVDKSTSTAYMELSSLRSEDTAVYYCGRLGSRYWYFDVWGQGTTVTVSS
VL: DVVMTQTPLSSPVTLGQPASISCRSSQSIIHSNGNTYLEWYLQKPGQSPQLLIYKVSNRFSGVPDRFSGSGSGTDFTLKISRVEAEDVGVYYCFQGSHVPWTFGQGTKLEIK
binds: all assays above

B3: SDP071 humanized anti-Cad-11 EC1 antibody (Vκ2/VH2) (antibody, IgG4, V domains shown)
VH: EVQLVQSGAEVKKPGASVKISCKASGYSFTGYFMNWVKQAPGQGLEWIGRINPYTGDTFYNQKFKGRATLTVDKSTSTAYMELSSLRSEDTAVYYCGRLGSRYWYFDVWGQGTTVTVSS
VL: DVLMTQTPLSSPVTLGQPASISCRSSQSIIHSNGNTYLEWYLQKPGQSPQLLIYKVSNRFSGVPDRFSGSGSGTDFTLKISRVEAEDVGVYYCFQGSHVPWTFGQGTKLEIK
not listed: [7] | [8]
binds: all other assays above

B4: SDP091 humanized anti-Cad-11 EC1 antibody (Vκ2/VH4) (antibody, IgG4, V domains shown)
VH: EVQLVQSGAEVKKPGASVKVSCKASGYSFTGYFMNWVRQAPGQGLEWIGRINPYTGDTFYNQKFKGRATITVDKSTSTAYMELSSLRSEDTAVYYCGRLGSRYWYFDVWGQGTTVTVSS
VL: DVLMTQTPLSSPVTLGQPASISCRSSQSIIHSNGNTYLEWYLQKPGQSPQLLIYKVSNRFSGVPDRFSGSGSGTDFTLKISRVEAEDVGVYYCFQGSHVPWTFGQGTKLEIK
binds: all assays above

B5: SDP121 humanized anti-Cad-11 EC1 antibody (Vκ3/VH2) (antibody, IgG4, V domains shown)
VH: EVQLVQSGAEVKKPGASVKISCKASGYSFTGYFMNWVKQAPGQGLEWIGRINPYTGDTFYNQKFKGRATLTVDKSTSTAYMELSSLRSEDTAVYYCGRLGSRYWYFDVWGQGTTVTVSS
VL: DVVMTQTPLSSPVTLGQPASISCRSSQSIIHSNGNTYLEWYLQKPGQSPQLLIYKVSNRFSGVPDRFSGSGSGTDFTLKISRVEAEDVGVYYCFQGSHVPWTFGQGTKLEIK
binds: all assays above

B6: SDP151 humanized anti-Cad-11 EC1 antibody (Vκ3/VH5) (antibody, IgG4, V domains shown)
VH: EVQLVQSGAEVKKPGASVKVSCKASGYSFTGYFMNWVRQAPGQGLEWIGRINPYTGDTFYNQKFKGRVTITVDKSTSTAYMELSSLRSEDTAVYYCGRLGSRYWYFDVWGQGTTVTVSS
VL: DVVMTQTPLSSPVTLGQPASISCRSSQSIIHSNGNTYLEWYLQKPGQSPQLLIYKVSNRFSGVPDRFSGSGSGTDFTLKISRVEAEDVGVYYCFQGSHVPWTFGQGTKLEIK
binds: all assays above

B7: SDP131 humanized anti-Cad-11 EC1 antibody (Vκ3/VH3) (antibody, IgG4, V domains shown)
VH: EVQLVQSGAEVKKPGASVKISCKASGYSFTGYFMNWVRQAPGQGLEWIGRINPYTGDTFYNQKFKGRATLTVDKSTSTAYMELSSLRSEDTAVYYCGRLGSRYWYFDVWGQGTTVTVSS
VL: DVVMTQTPLSSPVTLGQPASISCRSSQSIIHSNGNTYLEWYLQKPGQSPQLLIYKVSNRFSGVPDRFSGSGSGTDFTLKISRVEAEDVGVYYCFQGSHVPWTFGQGTKLEIK
binds: all assays above

B8: SDP081 humanized anti-Cad-11 EC1 antibody (Vκ2/VH3) (antibody, IgG4, V domains shown)
VH: EVQLVQSGAEVKKPGASVKISCKASGYSFTGYFMNWVRQAPGQGLEWIGRINPYTGDTFYNQKFKGRATLTVDKSTSTAYMELSSLRSEDTAVYYCGRLGSRYWYFDVWGQGTTVTVSS
VL: DVLMTQTPLSSPVTLGQPASISCRSSQSIIHSNGNTYLEWYLQKPGQSPQLLIYKVSNRFSGVPDRFSGSGSGTDFTLKISRVEAEDVGVYYCFQGSHVPWTFGQGTKLEIK
binds: all assays above

B9: SDP111 humanized anti-Cad-11 EC1 antibody (Vκ3/VH1) (antibody, IgG4, V domains shown)
VH: EVQLVQSGPELKKPGASVKISCKASGYSFTGYFMNWVKQAHGQGLEWIGRINPYTGDTFYNQKFKGRATLTVDKSSSTAYMELVSLSSEDSAVYYCGRLGSRYWYFDVWGQGTTVTVSS
VL: DVVMTQTPLSSPVTLGQPASISCRSSQSIIHSNGNTYLEWYLQKPGQSPQLLIYKVSNRFSGVPDRFSGSGSGTDFTLKISRVEAEDVGVYYCFQGSHVPWTFGQGTKLEIK
not listed: [8]
binds: all other assays above

B10: SDP101 humanized anti-Cad-11 EC1 antibody (Vκ2/VH5) (antibody, IgG4, V domains shown)
VH: EVQLVQSGAEVKKPGASVKVSCKASGYSFTGYFMNWVRQAPGQGLEWIGRINPYTGDTFYNQKFKGRVTITVDKSTSTAYMELSSLRSEDTAVYYCGRLGSRYWYFDVWGQGTTVTVSS
VL: DVLMTQTPLSSPVTLGQPASISCRSSQSIIHSNGNTYLEWYLQKPGQSPQLLIYKVSNRFSGVPDRFSGSGSGTDFTLKISRVEAEDVGVYYCFQGSHVPWTFGQGTKLEIK
binds: all assays above
